This note sets out measurements from paper PMC8997165, “Transcriptional CDK Inhibitors as Potential Treatment Option for Testicular Germ Cell Tumors” (Cancers, 2022).

Type in all cases: cell-based
One assay concerns TGCT cell lines. Nature of the assay: XTT cell viability assay, summarised over TGCT tumor cell lines. The note with it: Homo sapiens, 72 h, read-out: IC50 at 72 h, range over tumor cell lines. How it is done: The following cell lines were used 2102EP, 2102EP-R, NCCIT, NCCIT-R (all ECs), TCam2 (seminoma cell line), FS1 (Sertoli cell line) and MPAF (human adult fibroblast cell line). Cells were cultivated as described previously. In brief, the ECs were cultivated in Dulbecco’s modified Eagle’s medium (DMEM) supplemented with 10% fetal bovine serum (FBS), 1% penicillin–streptomycin and […] L-glutamine. FS1 cells were grown in DMEM supplemented with 20% FSB, 1% penicillin–streptomycin, 200 mM L-glutamine and 1% nonessential amino acids (NEAA). MPAF cells were cultured in DMEM supplemented with 10% FBS, 1% penicillin–streptomycin, 200 mM L-glutamine and 1% NEAA. TCam2 cell line was cultured in RPMI medium supplemented with 10% FBS, 1% penicillin–streptomycin and […] L-glutamine. All cell lines were kept at 37 °C and 7.5% CO2. 2102EP and NCCIT were a kind gift from Prof. Dr. L. Looijenga (Princess Máxima Center for Pediatric Oncology, Utrecht, The Netherlands). […]
(§1) The assay was performed based on the reduction in XTT tetrazolium salt as described previously. […] For readout, absorption was measured at 450 nm and 650 nm. Specific XTT signal (450 nm) was subtracted by nonspecific absorbance (650) and blank (cell culture medium). Averages of technical triplicates were calculated, and treated sample was referenced to the corresponding dimethyl sufoxide (DMSO) control. […]
Background: Tetrazolium dyes change colour on reduction, which living cells bring about.

A further assay deals with NCCIT cells. In words: XTT cell viability assay, NCCIT. The note with it: Homo sapiens. The protocol: (§2) The following cell lines were used 2102EP, 2102EP-R, NCCIT, NCCIT-R (all ECs), TCam2 (seminoma cell line), FS1 (Sertoli cell line) and MPAF (human adult fibroblast cell line). Cells were cultivated as described previously. In brief, the ECs were cultivated in Dulbecco’s modified Eagle’s medium (DMEM) supplemented with 10% fetal bovine serum (FBS), 1% penicillin–streptomycin and […] L-glutamine. FS1 cells were grown in DMEM supplemented with 20% FSB, 1% penicillin–streptomycin, 200 mM L-glutamine and 1% nonessential amino acids (NEAA). MPAF cells were cultured in DMEM supplemented with 10% FBS, 1% penicillin–streptomycin, 200 mM L-glutamine and 1% NEAA. TCam2 cell line was cultured in RPMI medium supplemented with 10% FBS, 1% penicillin–streptomycin and […] L-glutamine. All cell lines were kept at 37 °C and 7.5% CO2. 2102EP and NCCIT were a kind gift from Prof. Dr. L. Looijenga (Princess Máxima Center for Pediatric Oncology, Utrecht, The Netherlands). Cisplatin-resistant lines 2102EP-R and NCCIT-R were obtained from PD Dr. F. Honecker (Breast and Tumor Center, ZeTup Silberturm, St. Gallen, Switzerland). MPAFs were a kind gift from […] (Bonn University, Institute of Reconstructive Neurobiology, Bonn, Germany). FS1 cells were obtained from Prof. Dr. V. Schumacher (Boston Children’s Hospital, Department of Urology; Harvard Medical School, Department of Surgery, Boston, MA, USA).
as §1, with “previously. In summary, 3000 cells were seeded per well of a 96-well cell culture plate in 100 µL of cell culture medium. The next day, cells were treated with CDK inhibitor or CDK degrader for 24/48/72 h.” for “previously.”

The test system of a further assay is TCam2 cells. In words: XTT cell viability assay, TCam2. The note with it: Homo sapiens. The protocol:
as §2
as §1, with “previously. In summary, 3000 cells were seeded per well of a 96-well cell culture plate in 100 µL of cell culture medium. The next day, cells were treated with CDK inhibitor or CDK degrader for 24/48/72 h.” for “previously.”

The next assay has as its system 2102EP cells. In words: XTT cell viability assay, 2102EP. The note with it: Homo sapiens. The protocol: as §2
as §1, with “previously. In summary, 3000 cells were seeded per well of a 96-well cell culture plate in 100 µL of cell culture medium. The next day, cells were treated with CDK inhibitor or CDK degrader for 24/48/72 h.” for “previously.”

Another assay concerns 2102EP-R cells. In words: XTT cell viability assay, 2102EP-R (cisplatin-resistant). The note with it: Homo sapiens. The protocol:
as §2
as §1, with “previously. In summary, 3000 cells were seeded per well of a 96-well cell culture plate in 100 µL of cell culture medium. The next day, cells were treated with CDK inhibitor or CDK degrader for 24/48/72 h.” for “previously.”

The next assay deals with NCCIT-R cells. Nature of the assay: XTT cell viability assay, NCCIT-R (cisplatin-resistant). Conditions: Homo sapiens. The protocol: as §2
as §1, with “previously. In summary, 3000 cells were seeded per well of a 96-well cell culture plate in 100 µL of cell culture medium. The next day, cells were treated with CDK inhibitor or CDK degrader for 24/48/72 h.” for “previously.”

The next assay has as its system MPAF cells. In words: XTT cell viability assay, MPAF fibroblast control. The note with it: Homo sapiens. How it is done: as §2
as §1, with “previously. In summary, 3000 cells were seeded per well of a 96-well cell culture plate in 100 µL of cell culture medium. The next day, cells were treated with CDK inhibitor or CDK degrader for 24/48/72 h.” for “previously.”

For a further assay, the system named is FS1 cells. Nature of the assay: XTT cell viability assay, FS1 Sertoli control. Conditions: Homo sapiens. The protocol: as §2
as §1, with “previously. In summary, 3000 cells were seeded per well of a 96-well cell culture plate in 100 µL of cell culture medium. The next day, cells were treated with CDK inhibitor or CDK degrader for 24/48/72 h.” for “previously.”

In general, IC50 refers to the midpoint of a concentration-inhibition curve. Turning to `CCc1cnn2c(NCc3ccc[n+]([O-])c3)cc(N3CCCC[C@H]3CCO)nc12` [Dinaciclib, dinaciclib], the IC50 in the assay with TGCT cell lines was 0.8 to 4.3 nM; in the assay with NCCIT cells (24 h), 594 nM; in the assay on NCCIT cells (48 h) it was 21.8 nM; in the assay with NCCIT cells (72 h), 1.5 nM; in the assay on TCam2 cells (TCam2, 24 h), 35.1 nM; in the assay with TCam2 cells (TCam2, 48 h) it was 11.5 nM. Besides, the IC50 was found to be 1.6 nM with TCam2 cells (TCam2, 72 h); 76.8 nM in the assay with 2102EP cells (24 h); 3.4 nM with 2102EP cells (48 h); 0.8 nM in the assay on 2102EP cells (72 h); 102 nM in the assay on 2102EP-R cells (24 h); 2 nM in the assay with 2102EP-R cells (48 h). Besides, the half-maximal inhibitory concentration (IC50) was 1.1 nM with 2102EP-R cells (72 h); 315 nM in the assay with NCCIT-R cells (24 h); 19.6 nM in the assay with NCCIT-R cells (48 h); 4.3 nM with NCCIT-R cells (72 h); greater than 1000 nM in the assay on MPAF cells (24 h); greater than 1000 nM with MPAF cells (48 h). The 50% inhibitory concentration (IC50) is greater than 1000 nM with MPAF cells (72 h); 393 nM with FS1 cells (FS1, 24 h); 85.7 nM in the assay on FS1 cells (FS1, 48 h); 14.3 nM in the assay with FS1 cells (FS1, 72 h).
